In patent US10494360B2, “Inhibitors of indoleamine 2,3-dioxygenase” (NETHERLANDS TRANSLATIONAL RESEARCH CENTER B.V., priority 2016, dated 2019):
Some results were stated once for a whole list of compounds, not compound by compound.

The chains behind the UniProt entries cited, without tags or fusion partners.
UniProt P14902, whole entry, species assumed: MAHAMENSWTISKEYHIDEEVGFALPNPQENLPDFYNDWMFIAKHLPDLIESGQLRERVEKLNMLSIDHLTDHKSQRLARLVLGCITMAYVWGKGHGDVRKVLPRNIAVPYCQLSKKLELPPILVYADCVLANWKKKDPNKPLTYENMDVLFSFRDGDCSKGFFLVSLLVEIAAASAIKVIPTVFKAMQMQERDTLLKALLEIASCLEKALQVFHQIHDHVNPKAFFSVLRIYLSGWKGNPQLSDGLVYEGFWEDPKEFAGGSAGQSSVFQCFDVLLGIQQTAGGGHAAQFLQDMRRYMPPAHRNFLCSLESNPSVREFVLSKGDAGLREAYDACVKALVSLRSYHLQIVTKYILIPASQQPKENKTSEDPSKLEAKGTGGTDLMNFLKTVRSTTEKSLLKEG

Molecular target: IDO1 (Homo sapiens, UniProt P14902)
Assay: Cell-based assay for IDO1 in interferon-γ stimulated A-375 melanoma cells
Conditions: interferon-γ stimulation, 48 hours, read-out: IC50, cell-based IDO1 (NFK levels)
Protocol: The biological activity of IDO1 inhibitors can be measured by applying above detection methods to cells that are treated with test compound. The expression of IDO1 can be induced in many different cell lines by stimulation with IFNγ (Takikawa, O., et al., J. Biol. Chem. 263: 2041; 1988; Seegers, et al.), or IDO1 can be expressed in cells that lack endogenous IDO1 by transfection of an expression vector containing IDO1 cDNA.
A-375 melanoma cells were purchased from LGC Standards GmbH (Wesel, Germany) and cultured in DMEM tissue culture medium (Life Technologies, Bleiswijk, The Netherlands), supplemented with 10% (v/v) bovine calf serum. Compounds were dissolved in DMSO and diluted in DMEM. Final DMSO concentration in the assay was 0.4% (v/v). Eight thousand cells per well in 35 μl were seeded in a black 384-well tissue plate (cat. No. 781086; Greiner Bio-One GmbH, Frickenhausen, Germany) and allowed to adhere by incubation at 37° C., 95% humidity, and 5% CO2 overnight. Then, 5 μl of compound solution was added to the cells 1 hour prior to stimulation with 5 μl of 500 ng/ml interferon-γ (R&D Systems, Minneapolis, Minn., USA) diluted in DMEM medium. […] Fluorescence was measured on an EnVision multimode reader (Perkin Elmer, Waltham, Mass., USA). IC50 were calculated using XLfit™ software (ID Business Solutions, Ltd., Surrey, U.K.).

SMILES: C[C@@H](c1ccccc1)N1CC(=O)N(O)C1c1cccc(I)c1 (single isomer, unassigned) [Example 140b]
- IC50: < 5 µM

SMILES: O=C1CN(C(=O)c2c(F)cccc2F)C(c2cccc(Br)c2)N1O (single isomer, unassigned) [Example 142b, 2-(3-bromophenyl)-1-(2,6-difluorobenzoyl)-3-hydroxy-imidazolidin-4-one]
- IC50: < 5 µM
